Test results reported in patent US6939534B2, “Method to treat pulmonary hypoplasia in the newborn” (GenoMed, LLC, priority 2001, dated 2005).

Test: Direct radioimmunoassay of EGF content of neonatal urine
Parameters: species or system human

epidermal growth factor [EGF]
EGF content of neonatal urine by direct radioimmunoassay (day 1): 30.1 ± 9.0 ng/mL
EGF content of neonatal urine by direct radioimmunoassay (day 3): 40.0 ± 11.3 ng/mL
